The source of these data is PubChem BioAssay AID662 (National Center for Advancing Translational Sciences (NCATS), 2007).

This is one part of the list. Shown are side measurements of this screen, not its main read-out; they come without a call. Compounds called inactive in the main read-out are mostly missing here. The note in brackets gives the kind of curve behind each potency; many fits are weak.

For orientation: AC50 means the concentration giving half of the maximal activity seen.

This assay can be described thus: Cell signaling CRE-BLA (Fsk stim). Particulars: CHO CRE-bla reporter (cAMP response element driving beta-lactamase), forskolin EC10, beta-lactamase ratio; measured here: 460 nm blue channel. Put shortly:
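qHTS titration format; CRE-bla CHO reporter; stimulus EC10 NKH 477, a water-soluble forskolin. Read: CCF4 460/530 nm ratio. Potency expressed as AC50 for activators or inhibitors.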
For the compound `CCCC[C@@H]1C[C@H]1C(NC(=O)c1cccnc1)c1ccc(-c2ccccc2)cc1` (stereo partly drawn), the AC50 was 12.6 µM [rising, partial curve].

In the case of `Cc1nc2cnc(Nc3ccccc3)nc2n(Cc2cccs2)c1=O`, the AC50 was 15.8 µM [rising, partial curve].

With `N#Cc1c(NC(=O)CSc2ncn(-c3ccccc3)n2)sc2c1CCCC2`, the AC50 was 0.501 µM [falling, full curve, poor fit].

For the compound `COc1cccc2sc(Nc3nnc(-c4cccs4)o3)nc12`, the AC50 is 3.98 µM [falling, partial curve].

In the case of `CCc1nc2ccccc2n1Cc1cc(=O)n2cc(C)ccc2n1`, the AC50 is 12.6 µM [rising, partial curve, poor fit].

Turning to `Cc1ccc2oc3c(c(=O)c2c1)C(c1cccc(Cl)c1)N(CCCN1CCOCC1)C3=O` (stereo not drawn), the AC50 was 15.8 µM [rising, single point].

Take `Cc1onc(-c2ccccc2)c1C(=O)Oc1cccnc1`: the AC50 is 25.1 µM [rising, single point].

For the compound `CC(=O)c1cc2c(cc1NC(=O)c1cc(C)nn1-c1ccccc1)OCO2`, the AC50 is 12.6 µM [rising, partial curve].

As to `CCOc1ccccc1NC(=O)Cn1cnc2c(nnn2-c2cccc(OC)c2)c1=O`, the AC50 is 7.94 µM [rising, partial curve].

Regarding `Cc1cc(NC(=O)c2ccc3nc(C)sc3c2)no1`, the AC50 is 3.98 µM [falling, single point].

Regarding `Cn1c(CCN2CCCCC2)nc2cc(NS(=O)(=O)c3ccc(Cl)cc3)ccc21`, the AC50 is 15.8 µM [falling, partial curve].

With `O=C(COc1ccc(-n2cnnn2)cc1)NCCc1ccc(F)cc1`, the AC50 is 0.126 µM [rising, full curve, poor fit].

Regarding `CC(C)CCNC(=O)CCNS(=O)(=O)c1ccc(Cl)cc1`, the AC50 was 3.98 µM [falling, full curve].

As for `CC(C)N(Cc1nc(-c2ccc(Cl)cc2)no1)C(=O)C12CC3CC(CC(C3)C1)C2`, the AC50 was 25.1 µM [falling, single point].

As for `COCC1C2CC[C@H]3C(OCc4ccc(F)cc4C(F)(F)F)OC[C@]4(C)[C@H]3C2=C(CN4C(=O)OC(C)(C)C)[C@H](C)C1COC` (stereo partly drawn), the AC50 was 10 µM [rising, partial curve].

As to `O=C(OCc1ccccc1)C1CCCN1C(=O)c1cccs1` (stereo not drawn), the AC50 is 3.98 µM [falling, partial curve].

Regarding `CS(=O)(=O)c1nc(-c2cccs2)cc(C(F)(F)F)n1`, the AC50 was 0.316 µM [falling, full curve].

With `Cc1ccc(C)c(-c2nc3cc(N)ccc3o2)c1`, the AC50 is 25.1 µM [rising, single point].
